Experimental data reported in paper PMC3927929.

Molecular target: T1, Cdc37 (cell-division cycle 37) (as used in Supplementary Figure S2) (human) (UniProt Q16543)
T1 sequence: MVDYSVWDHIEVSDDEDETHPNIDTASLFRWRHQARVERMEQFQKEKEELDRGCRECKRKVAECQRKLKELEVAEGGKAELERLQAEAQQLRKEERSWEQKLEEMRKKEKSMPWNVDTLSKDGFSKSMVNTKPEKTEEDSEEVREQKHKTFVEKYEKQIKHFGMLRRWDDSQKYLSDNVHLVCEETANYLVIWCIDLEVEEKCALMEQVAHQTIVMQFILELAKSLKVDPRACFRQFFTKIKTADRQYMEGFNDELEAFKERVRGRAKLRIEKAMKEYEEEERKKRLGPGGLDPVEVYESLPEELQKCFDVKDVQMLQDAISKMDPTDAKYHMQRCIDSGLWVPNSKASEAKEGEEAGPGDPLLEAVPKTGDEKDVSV
Test: co-IP; co-immunoprecipitation among Hsp90α, PKCγ, Hsp70 and Cdc37 (Supplementary Figure S2A, S2B, S2E); also after knock-down of Hsp70 or Cdc37 by siRNA

- binding: no binding
Substance: Hsp70 (as used in Supplementary Figure S2) (human)

Results are given in words; binding and its absence hold for the method and conditions named. In cells and extracts the contact can be indirect.
